The chains behind the UniProt entries cited, without tags or fusion partners. Where a name states a change or a piece, a line headed by the entry shows the natural chain unless it says otherwise.
UniProt Q9UNA4: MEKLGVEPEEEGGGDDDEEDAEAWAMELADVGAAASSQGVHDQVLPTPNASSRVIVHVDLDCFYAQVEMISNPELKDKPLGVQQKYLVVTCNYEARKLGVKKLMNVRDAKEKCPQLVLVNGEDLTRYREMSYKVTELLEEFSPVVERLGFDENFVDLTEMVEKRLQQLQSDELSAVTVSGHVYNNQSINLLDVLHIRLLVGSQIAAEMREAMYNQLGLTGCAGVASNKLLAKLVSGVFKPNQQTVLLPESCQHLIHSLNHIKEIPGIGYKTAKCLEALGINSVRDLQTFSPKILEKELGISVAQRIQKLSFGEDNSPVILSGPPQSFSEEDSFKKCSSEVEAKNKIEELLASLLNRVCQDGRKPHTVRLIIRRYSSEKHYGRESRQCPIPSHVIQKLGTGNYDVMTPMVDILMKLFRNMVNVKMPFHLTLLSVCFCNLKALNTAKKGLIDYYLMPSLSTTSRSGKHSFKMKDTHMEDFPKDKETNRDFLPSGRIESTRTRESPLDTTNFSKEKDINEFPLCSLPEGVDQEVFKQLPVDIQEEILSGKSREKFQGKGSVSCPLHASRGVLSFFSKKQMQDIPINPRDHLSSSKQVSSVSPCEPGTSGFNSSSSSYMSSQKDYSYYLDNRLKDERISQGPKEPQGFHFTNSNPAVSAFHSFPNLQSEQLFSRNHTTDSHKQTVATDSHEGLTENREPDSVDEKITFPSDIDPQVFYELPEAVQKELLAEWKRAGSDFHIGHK

Among all 390,000 compounds or so, about 4,000 (1%) were called active. This list was built around the results that the source calls inconclusive (neither active nor inactive); the mix of calls is not that of the screen. Calls follow the shape of the dose curve; as a rule, active = well fitted inhibition curve with a large enough effect; inconclusive = small, poorly fitted or top-dose-only effect, or another doubt; inactive = no such curve, though single readings can be large or run the other way. Where the call is inconclusive, the potency comes from a doubtful curve fit.
The compounds below were run against DNA polymerase iota (Homo sapiens) (UniProt Q9UNA4) (assay: qHTS for Inhibitors of Polymerase Iota). Details: Pol iota fluorescent replication assay, 10 min; series mostly up to 115 µM.
How it was run: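 Pol iota at 10 nM preincubated 15 min with compounds at room temperature; reaction started with fluorescent substrate, 50 nM final. Fluorescence read kinetically at 0 and 10 min; buffer-only wells as negative control.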
In the case of CC(C)CNC(=O)CCc1nc(-c2ccccc2)no1, the Potency is reported as “inactive”. COc1ccc(CC(=O)OCC(=O)Nc2ncc(Cl)c(C)c2Cl)cc1 was tested, and the Potency was inconclusive: 11.2 µM [inhibitor, partial curve, poor fit]. For Cc1cc(C)nc(SCC(=O)c2ccc(O)c(O)c2)n1, the Potency was inconclusive: 56.2 µM [inhibitor, partial curve, poor fit]. With CCOc1ccc(CNC(=O)C2CCCN(c3nn4cc(-c5ccc(OC)cc5)nc4s3)C2)cc1 (stereo not given) the Potency was “inactive”. Brc1ccc(-c2nn3c(-c4ccccn4)nnc3s2)o1 was tested, and the Potency was inconclusive: 17.8 µM [inhibitor, full curve]. Cc1cccc(NC(=O)CCCn2nc(C)c3c(C)n(-c4ccccc4)nc3c2=O)c1C was tested, and the Potency was inconclusive: 10 µM [inhibitor, partial curve]. In the case of O=C(N/N=C/c1cc(Cl)c(O)c(Cl)c1)c1cc2c(ccc3ccccc32)o1, the Potency is reported as inconclusive: 56.2 µM [inhibitor, partial curve, poor fit]. With Cc1cc(=O)n(CC(=O)Nc2ccc(Cl)c(Cl)c2)c(-n2nc(C)cc2C)n1 the Potency was inconclusive: 31.6 µM [inhibitor, partial curve, poor fit]. For O=S(=O)(Nc1ccc(C(F)(F)F)cc1)c1cnc[nH]1, the Potency was inconclusive: 25.1 µM [inhibitor, single point]. For COC(=O)C1=C(C)N(CCc2ccc(OC)c(OC)c2)C(=O)/C1=C\N(C)C, the Potency was inconclusive: 2.24 µM [inhibitor, full curve]. In the case of Cc1ccccc1OCC(=O)NCC(=O)OCC(=O)c1ccc2c(c1)CCCC2, the Potency is reported as “inactive”. For COc1ccc2oc(-c3cccc(NC(=O)c4cc([N+](=O)[O-])ccc4N4CCOCC4)c3)nc2c1, the Potency was inconclusive: 89.1 µM [inhibitor, single point]. For O=C(Nc1nnc(S(=O)(=O)N2CCN(c3ccc(F)cc3)CC2)s1)c1ccco1, the Potency was inconclusive: 17.8 µM [inhibitor, full curve, poor fit]. For COc1cc(CNc2cccc3[nH]c(C(F)(F)F)nc23)cc(OC)c1, the Potency was inconclusive: 11.2 µM [inhibitor, partial curve, poor fit]. For Cn1c2ccccc2c2cc(/C=N/NC(=O)c3cc(O)cc(O)c3)ccc21, the Potency was active: 28.2 µM. With O=C(CSc1ncccn1)Nc1ccc(S(=O)(=O)N2CCCCC2)cc1 the Potency was inconclusive: 79.4 µM [inhibitor, partial curve, poor fit]. In the case of COc1ccc2c(c1)c1ncn(CCc3ccccc3)c(=O)c1n2C, the Potency is reported as inconclusive: 70.8 µM [inhibitor, partial curve, poor fit]. In the case of CC1(C)Cc2ccccc2C2=NNC(=O)C2=N1, the Potency is reported as inconclusive: 15.8 µM [inhibitor, full curve, poor fit]. For COc1cccc(N2CC(C(=O)Nc3nnc(SCc4cccnc4)s3)CC2=O)c1 (stereo not given), the Potency was inconclusive: 89.1 µM [inhibitor, partial curve]. For COC(=O)/C=C1\SC(=NC(=O)c2ccc(-c3ccccc3)cc2)NC1=O, the Potency was inconclusive: 25.1 µM [inhibitor, single point]. For O=C(O)Cc1nc(-c2cccnc2)sc1-c1ccc(Br)cc1, the Potency was inconclusive: 39.8 µM [inhibitor, single point]. C=C(C)[C@@H]1C2=CC(C(=O)OC)=C(C[C@@H](C(=C)C)[C@H]3O[C@H]3C3=C[C@H]1OC3=O)O2 was tested, and the Potency was inconclusive: 12.6 µM [inhibitor, partial curve, poor fit]. For Cc1ccccc1NC(=O)CSc1nc2c(oc3ccccc32)c(=O)n1Cc1ccco1, the Potency was “inactive”. For N#C/C(=N\Nc1c(Cl)cccc1Cl)C(=O)NN, the Potency was inconclusive: 3.16 µM [inhibitor, full curve, poor fit]. For O=C(Oc1ccc(F)cc1C(=O)/C=C/c1cccs1)c1cccc([N+](=O)[O-])c1, the Potency was inconclusive: 28.2 µM [inhibitor, full curve, poor fit]. C=CCOc1ccc(CNc2ccc(NC(=O)CCC)cc2)cc1OCC was tested, and the Potency was inconclusive: 100 µM [inhibitor, partial curve, poor fit]. In the case of O=C(O)c1ccc2c3c(cccc13)C(=O)N(c1ccccc1)C2=O, the Potency is reported as active: 28.2 µM. Cc1ccc(NC(=O)c2ccc(F)cc2F)cc1 was tested, and the Potency was inconclusive: 39.8 µM [inhibitor, single point]. CN1C(=O)c2ccccc2Sc2ccc(NC(=O)Cc3ccc(Cl)cc3)cc21 was tested, and the Potency was inconclusive: 31.6 µM [inhibitor, full curve]. In the case of CC(C)(C)c1ccc(CCC2OCC(CN3CCOCC3)O2)cc1 (stereo not given), the Potency is reported as inconclusive: 79.4 µM [inhibitor, single point]. In the case of Cc1ccc(CCNC(=O)C2CC(=O)N(CCc3ccc(C)cc3)C2)cc1 (stereo not given), the Potency is reported as “inactive”. With CCOC(=O)c1cccc(NC(=O)C2COc3ccc(OC)cc3C2)c1 (stereo not given) the Potency was inconclusive: 39.8 µM [inhibitor, partial curve, poor fit]. For COC(=O)Cc1[nH]nc2c1C(c1cc(OC)c(OC)c(OC)c1)C(C#N)=C(N)O2 (stereo not given), the Potency was “inactive”. In the case of COC(=O)[C@@]1(Cc2ccccc2)[C@H]2C(=O)N(C)C(=O)[C@H]2[C@H]2CN=C(SCc3ccc(C#N)cc3)N21, the Potency is reported as inconclusive: 28.2 µM [inhibitor, single point]. With Cc1ccc(S(=O)(=O)Nn2c(O)c(C=C3N=c4ccccc4=N3)sc2=S)cc1 the Potency was inconclusive: 39.8 µM [inhibitor, single point]. In the case of O=C(COc1ccccc1[N+](=O)[O-])Nc1ccc(NC(=O)c2cc3ccccc3o2)cc1, the Potency is reported as inconclusive: 14.1 µM [inhibitor, partial curve, poor fit]. CC(C)NC(=O)COC(=O)/C=C/c1ccco1 was tested, and the Potency was active: 79.4 µM. CC(=O)Nc1cc2c(cc1C(=O)c1ccccc1)OCCO2 was tested, and the Potency was “inactive”. For COc1ccccc1NC(=O)COc1ccc(C(=O)NCc2ccccc2)cc1OC, the Potency was inconclusive: 89.1 µM [inhibitor, single point]. O=C(CSc1ncn[nH]1)c1ccccc1 was tested, and the Potency was inconclusive: 39.8 µM [inhibitor, single point].
Potency is read from the fitted curve at half-maximal effect.
